Source: PubChem BioAssay AID1259291 (Sanger Institute, 2017)
In all, the deposit lists 794 reagents; below is a random part of them. Of all reagents, 15 (1.9%) were called active. 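Calls rest on knock-down alone; drug synergy scores do not affect them; drugs added a day post-transfection, DMSO vehicle as comparison.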 A number with no mark means an inactive call. No viability above 1 is reported: the scale is capped. Further read-outs or replicates are left out here. The record does not give: the amount of reagent, the time to read-out.

Test: 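Genes needed for HT29 colorectal cancer cell survival or for sensitivity to drugs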 (primary screen)
Cell system: HT29 human colorectal cancer cells
Reagent: siRNA pool against human genes
Challenge: anchor drugs added a day after transfection: BYL719 at 1 µM, cetuximab at 5 µg/ml or trametinib at 10 nM, or DMSO vehicle alone
Detection: 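Cell viability as a fraction of the non-targeting pool, mean of replicates, robust z-scores from control wells; synergy scores for BYL719 (1 µM), cetuximab (5 µg/ml), trametinib (10 nM)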
Scale: robust z-score, knock-down alone and viability, knock-down alone: higher = more viable cells
Call rule: 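Essential when the robust z-score for knock-down without any drug is below -3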
Calls: active = essential (knock-down alone); inactive = no change alone

For PLK4, the entry reads robust z-score, knock-down alone -0.281; viability, knock-down alone (fraction of control) = 0.948.
With knock-down of MAK, the screen gave robust z-score, knock-down alone 0.552; viability, knock-down alone (fraction of control) = 1.
After knock-down of CDK5R1, the screen gave robust z-score, knock-down alone 0.552; viability, knock-down alone (fraction of control) = 1.
For CDK1 the deposit lists robust z-score, knock-down alone 0.552; viability, knock-down alone (fraction of control) = 1.
With knock-down of STK24, the screen gave robust z-score, knock-down alone 0.552; viability, knock-down alone (fraction of control) = 1.
Depletion of LMTK3 gave: robust z-score, knock-down alone 0.123; viability, knock-down alone (fraction of control) = 0.973.
After knock-down of LATS2 the results were robust z-score, knock-down alone 0.552; viability, knock-down alone (fraction of control) = 1.
With knock-down of FBXW7, the record shows robust z-score, knock-down alone -0.979; viability, knock-down alone (fraction of control) = 0.905.
Depletion of CDKN2C resulted in: robust z-score, knock-down alone 0.111; viability, knock-down alone (fraction of control) = 0.973.

A few values from above.
For “viability, knock-down alone (fraction of control)”, LATS2 reads 1
STK24, robust z-score, knock-down alone: 0.552
PLK4, robust z-score, knock-down alone: -0.281

Next records:
After knock-down of PIK3CB, the screen gave robust z-score, knock-down alone 0.552; viability, knock-down alone (fraction of control) = 1.
Knock-down of GCK gave: robust z-score, knock-down alone 0.552; viability, knock-down alone (fraction of control) = 1.
PDGFRL scored robust z-score, knock-down alone 0.552; viability, knock-down alone (fraction of control) = 1.
GSK3B gave robust z-score, knock-down alone 0.552; viability, knock-down alone (fraction of control) = 1.
ABL2 showed robust z-score, knock-down alone 0.48; viability, knock-down alone (fraction of control) = 0.996.
Against PRKD1, the entry reads robust z-score, knock-down alone 0.552; viability, knock-down alone (fraction of control) = 1.
Against TRIB3 the deposit lists robust z-score, knock-down alone -1.32; viability, knock-down alone (fraction of control) = 0.884.
Against RPS6KA5, the values are robust z-score, knock-down alone 0.356; viability, knock-down alone (fraction of control) = 0.988.
For PRKCE the deposit lists robust z-score, knock-down alone 0.404; viability, knock-down alone (fraction of control) = 0.991.
After knock-down of RPS6KB2 the results were robust z-score, knock-down alone 0.552; viability, knock-down alone (fraction of control) = 1.
Against PRKCI, the entry reads robust z-score, knock-down alone -0.301; viability, knock-down alone (fraction of control) = 0.947.
For EPHA1, the entry reads robust z-score, knock-down alone 0.552; viability, knock-down alone (fraction of control) = 1.
For CRKL, the entry reads robust z-score, knock-down alone 0.552; viability, knock-down alone (fraction of control) = 1.
GATA3 scored robust z-score, knock-down alone 0.339; viability, knock-down alone (fraction of control) = 0.987.
Against CLSPN the deposit lists robust z-score, knock-down alone 0.552; viability, knock-down alone (fraction of control) = 1.
Depletion of CDKL3 came out at: robust z-score, knock-down alone 0.552; viability, knock-down alone (fraction of control) = 1.
Depletion of RBM10 came out at: robust z-score, knock-down alone -0.177; viability, knock-down alone (fraction of control) = 0.955.
With knock-down of ADCK1, the record shows robust z-score, knock-down alone -1.26; viability, knock-down alone (fraction of control) = 0.888.
With knock-down of CDKN1C the results were robust z-score, knock-down alone 0.552; viability, knock-down alone (fraction of control) = 1.
